Test [1] addresses T1, WDR63 (endogenous, mouse testicular extracts) (mouse (endogenous in testis)) (UniProt B2RY71).
T1 sequence: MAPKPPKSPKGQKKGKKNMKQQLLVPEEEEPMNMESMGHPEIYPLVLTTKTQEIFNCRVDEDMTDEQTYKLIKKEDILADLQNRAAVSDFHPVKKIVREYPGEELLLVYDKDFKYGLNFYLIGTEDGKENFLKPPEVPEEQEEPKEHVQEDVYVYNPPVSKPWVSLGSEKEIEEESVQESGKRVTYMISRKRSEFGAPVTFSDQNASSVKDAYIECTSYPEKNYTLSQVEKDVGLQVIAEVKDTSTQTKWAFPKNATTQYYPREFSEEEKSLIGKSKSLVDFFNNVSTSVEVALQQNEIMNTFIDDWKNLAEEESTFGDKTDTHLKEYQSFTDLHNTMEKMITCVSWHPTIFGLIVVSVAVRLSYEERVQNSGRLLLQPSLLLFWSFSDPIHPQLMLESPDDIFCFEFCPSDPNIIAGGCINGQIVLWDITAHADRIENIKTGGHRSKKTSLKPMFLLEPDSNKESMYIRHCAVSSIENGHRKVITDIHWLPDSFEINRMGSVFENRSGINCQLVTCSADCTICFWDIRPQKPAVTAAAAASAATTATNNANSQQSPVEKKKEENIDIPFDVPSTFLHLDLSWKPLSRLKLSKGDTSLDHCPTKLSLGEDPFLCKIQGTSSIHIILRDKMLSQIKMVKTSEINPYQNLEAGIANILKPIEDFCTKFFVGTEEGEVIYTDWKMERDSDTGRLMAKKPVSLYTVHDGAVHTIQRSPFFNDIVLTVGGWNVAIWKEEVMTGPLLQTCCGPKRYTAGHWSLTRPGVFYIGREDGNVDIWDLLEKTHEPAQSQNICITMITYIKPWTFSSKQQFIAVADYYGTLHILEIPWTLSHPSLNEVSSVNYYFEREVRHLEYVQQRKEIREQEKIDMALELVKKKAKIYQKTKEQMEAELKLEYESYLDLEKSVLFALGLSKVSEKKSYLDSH
Nature of the test: co-IP; co-IP followed by immunoblotting for DNAH2 and DNAH10 (Supplementary Fig. S5d); sample and precipitating antibody not given. A general note: A western blot detects proteins with antibodies after separation by electrophoresis.

By UniProt entry, the sequences of proteins in these tests, tags left out.
UniProt P0C6F1: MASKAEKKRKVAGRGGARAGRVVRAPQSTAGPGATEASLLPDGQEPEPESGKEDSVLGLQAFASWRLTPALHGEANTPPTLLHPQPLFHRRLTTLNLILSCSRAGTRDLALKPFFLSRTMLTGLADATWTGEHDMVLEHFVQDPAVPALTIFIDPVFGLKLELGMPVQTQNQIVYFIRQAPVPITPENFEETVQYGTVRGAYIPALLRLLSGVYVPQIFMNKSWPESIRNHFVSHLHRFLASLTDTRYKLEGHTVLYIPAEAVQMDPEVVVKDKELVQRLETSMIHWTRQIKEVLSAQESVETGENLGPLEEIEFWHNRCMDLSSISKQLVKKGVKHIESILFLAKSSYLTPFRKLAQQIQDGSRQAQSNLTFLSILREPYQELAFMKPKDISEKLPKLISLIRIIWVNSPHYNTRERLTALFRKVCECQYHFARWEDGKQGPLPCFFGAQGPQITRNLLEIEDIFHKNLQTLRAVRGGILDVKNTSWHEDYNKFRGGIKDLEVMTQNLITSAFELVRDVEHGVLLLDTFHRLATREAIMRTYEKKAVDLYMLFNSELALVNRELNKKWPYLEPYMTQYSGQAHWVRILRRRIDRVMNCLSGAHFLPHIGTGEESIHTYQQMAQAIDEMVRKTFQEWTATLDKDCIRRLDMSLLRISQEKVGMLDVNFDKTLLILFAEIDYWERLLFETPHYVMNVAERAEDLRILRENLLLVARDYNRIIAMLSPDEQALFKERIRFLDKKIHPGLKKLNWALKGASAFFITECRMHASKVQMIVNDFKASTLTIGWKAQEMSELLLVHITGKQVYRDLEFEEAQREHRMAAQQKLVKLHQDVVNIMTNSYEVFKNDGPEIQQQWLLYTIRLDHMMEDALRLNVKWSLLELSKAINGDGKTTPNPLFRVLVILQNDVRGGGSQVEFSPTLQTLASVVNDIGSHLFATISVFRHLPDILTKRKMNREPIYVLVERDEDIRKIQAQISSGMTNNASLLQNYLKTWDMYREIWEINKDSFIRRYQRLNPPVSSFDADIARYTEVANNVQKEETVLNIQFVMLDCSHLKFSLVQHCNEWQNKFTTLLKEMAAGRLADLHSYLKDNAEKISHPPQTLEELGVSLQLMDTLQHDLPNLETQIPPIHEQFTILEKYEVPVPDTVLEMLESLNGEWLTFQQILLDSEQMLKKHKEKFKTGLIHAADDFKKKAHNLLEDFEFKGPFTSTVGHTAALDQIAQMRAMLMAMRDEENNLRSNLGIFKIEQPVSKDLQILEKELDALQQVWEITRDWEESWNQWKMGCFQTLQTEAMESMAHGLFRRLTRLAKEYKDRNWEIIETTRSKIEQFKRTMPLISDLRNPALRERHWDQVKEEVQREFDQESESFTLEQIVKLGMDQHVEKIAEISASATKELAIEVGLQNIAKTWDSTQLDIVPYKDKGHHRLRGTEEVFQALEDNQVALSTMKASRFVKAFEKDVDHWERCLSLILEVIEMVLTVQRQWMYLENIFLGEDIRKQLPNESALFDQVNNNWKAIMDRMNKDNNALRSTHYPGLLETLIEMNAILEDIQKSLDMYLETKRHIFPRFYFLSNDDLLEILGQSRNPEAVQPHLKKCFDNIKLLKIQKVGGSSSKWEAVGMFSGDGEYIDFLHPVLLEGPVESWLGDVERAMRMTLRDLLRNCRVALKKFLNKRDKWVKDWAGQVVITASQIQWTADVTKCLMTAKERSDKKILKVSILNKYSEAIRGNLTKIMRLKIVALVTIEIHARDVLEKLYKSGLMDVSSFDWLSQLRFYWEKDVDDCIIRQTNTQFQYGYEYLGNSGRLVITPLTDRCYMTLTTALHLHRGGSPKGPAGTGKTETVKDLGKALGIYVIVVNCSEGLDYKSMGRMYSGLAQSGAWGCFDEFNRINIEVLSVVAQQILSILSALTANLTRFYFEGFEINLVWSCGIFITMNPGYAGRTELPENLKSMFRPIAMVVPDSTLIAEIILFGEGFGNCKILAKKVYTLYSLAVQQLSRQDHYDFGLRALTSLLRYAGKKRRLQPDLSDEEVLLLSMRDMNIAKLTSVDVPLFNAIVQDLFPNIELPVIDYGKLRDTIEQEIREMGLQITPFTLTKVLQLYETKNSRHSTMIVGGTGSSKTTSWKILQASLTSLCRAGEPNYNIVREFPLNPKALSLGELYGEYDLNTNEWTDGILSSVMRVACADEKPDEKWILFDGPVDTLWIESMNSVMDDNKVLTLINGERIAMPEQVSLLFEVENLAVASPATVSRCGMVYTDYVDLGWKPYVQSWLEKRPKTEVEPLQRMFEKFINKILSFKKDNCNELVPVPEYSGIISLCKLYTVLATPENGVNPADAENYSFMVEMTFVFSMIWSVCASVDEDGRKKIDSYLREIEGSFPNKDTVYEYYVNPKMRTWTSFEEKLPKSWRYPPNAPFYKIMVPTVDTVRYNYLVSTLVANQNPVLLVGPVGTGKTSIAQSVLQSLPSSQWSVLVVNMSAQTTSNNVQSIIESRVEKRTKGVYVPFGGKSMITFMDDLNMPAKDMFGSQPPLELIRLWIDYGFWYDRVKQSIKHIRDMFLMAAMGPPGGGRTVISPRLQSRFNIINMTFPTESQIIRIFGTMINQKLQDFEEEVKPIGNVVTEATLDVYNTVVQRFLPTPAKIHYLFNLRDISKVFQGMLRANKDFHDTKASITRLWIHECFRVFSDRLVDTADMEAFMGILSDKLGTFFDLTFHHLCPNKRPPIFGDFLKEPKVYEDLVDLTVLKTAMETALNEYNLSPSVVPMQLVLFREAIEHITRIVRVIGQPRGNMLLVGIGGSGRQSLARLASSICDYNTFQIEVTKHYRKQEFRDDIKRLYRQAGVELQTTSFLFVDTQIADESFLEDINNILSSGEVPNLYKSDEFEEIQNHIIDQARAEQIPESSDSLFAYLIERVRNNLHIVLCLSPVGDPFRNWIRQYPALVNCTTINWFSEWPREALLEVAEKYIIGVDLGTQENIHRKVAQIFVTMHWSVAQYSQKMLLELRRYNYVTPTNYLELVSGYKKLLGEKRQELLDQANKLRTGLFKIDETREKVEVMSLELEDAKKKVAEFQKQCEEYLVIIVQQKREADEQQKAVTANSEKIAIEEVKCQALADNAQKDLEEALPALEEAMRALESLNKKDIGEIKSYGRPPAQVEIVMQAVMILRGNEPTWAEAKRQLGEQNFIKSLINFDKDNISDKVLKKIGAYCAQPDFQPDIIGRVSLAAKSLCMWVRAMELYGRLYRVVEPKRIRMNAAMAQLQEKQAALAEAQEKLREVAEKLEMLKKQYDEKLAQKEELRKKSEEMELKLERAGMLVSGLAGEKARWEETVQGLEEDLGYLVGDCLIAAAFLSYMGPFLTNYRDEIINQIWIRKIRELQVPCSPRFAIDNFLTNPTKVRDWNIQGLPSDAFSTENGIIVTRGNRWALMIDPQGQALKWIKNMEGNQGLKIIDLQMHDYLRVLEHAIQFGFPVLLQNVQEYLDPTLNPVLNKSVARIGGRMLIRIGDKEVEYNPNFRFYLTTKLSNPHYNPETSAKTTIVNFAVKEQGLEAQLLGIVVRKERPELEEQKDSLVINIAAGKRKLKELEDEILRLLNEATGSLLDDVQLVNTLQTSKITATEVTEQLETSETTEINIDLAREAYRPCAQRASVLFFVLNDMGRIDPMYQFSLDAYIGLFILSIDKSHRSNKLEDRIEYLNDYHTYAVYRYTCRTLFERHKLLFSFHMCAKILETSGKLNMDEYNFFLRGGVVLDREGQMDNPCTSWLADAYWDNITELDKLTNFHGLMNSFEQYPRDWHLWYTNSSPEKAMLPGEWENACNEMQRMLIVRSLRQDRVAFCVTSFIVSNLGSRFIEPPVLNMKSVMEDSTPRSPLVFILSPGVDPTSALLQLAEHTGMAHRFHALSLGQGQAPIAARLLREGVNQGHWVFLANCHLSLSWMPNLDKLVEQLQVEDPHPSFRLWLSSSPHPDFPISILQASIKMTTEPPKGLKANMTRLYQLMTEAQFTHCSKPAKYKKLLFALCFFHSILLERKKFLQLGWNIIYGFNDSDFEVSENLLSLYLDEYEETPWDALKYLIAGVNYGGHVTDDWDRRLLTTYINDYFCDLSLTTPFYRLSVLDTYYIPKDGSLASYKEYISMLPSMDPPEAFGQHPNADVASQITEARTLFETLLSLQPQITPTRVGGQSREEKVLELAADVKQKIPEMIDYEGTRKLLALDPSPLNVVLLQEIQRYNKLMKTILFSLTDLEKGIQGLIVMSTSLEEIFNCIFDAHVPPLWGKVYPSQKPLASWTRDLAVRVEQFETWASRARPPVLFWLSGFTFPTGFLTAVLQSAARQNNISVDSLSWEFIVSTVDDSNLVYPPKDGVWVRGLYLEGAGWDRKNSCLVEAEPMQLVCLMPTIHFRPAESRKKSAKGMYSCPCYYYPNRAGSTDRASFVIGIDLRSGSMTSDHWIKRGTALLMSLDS

Test [2] deals with T1, WDR63 (endogenous, mouse testicular extracts) (mouse (endogenous in testis)). Nature of the test: co-IP; testicular extracts, immunoprecipitation with anti-WDR63 antibodies, Protein A/G magnetic beads, Western blot for WDR78.
The target in test [3] is T2, HA-WDR63 WT (full-length) (mouse) (UniProt B2RY71).
T2 sequence: T1 sequence
Nature of the test: co-IP; HA-WDR63 constructs and FLAG-WDR78 transfected into HEK293T cells, collected after 48 h, immunoprecipitation with anti-HA and anti-FLAG antibodies, immunoblot.

Another test addresses T3, HA-WDR63 ΔN (mouse) (UniProt B2RY71).
T3 sequence: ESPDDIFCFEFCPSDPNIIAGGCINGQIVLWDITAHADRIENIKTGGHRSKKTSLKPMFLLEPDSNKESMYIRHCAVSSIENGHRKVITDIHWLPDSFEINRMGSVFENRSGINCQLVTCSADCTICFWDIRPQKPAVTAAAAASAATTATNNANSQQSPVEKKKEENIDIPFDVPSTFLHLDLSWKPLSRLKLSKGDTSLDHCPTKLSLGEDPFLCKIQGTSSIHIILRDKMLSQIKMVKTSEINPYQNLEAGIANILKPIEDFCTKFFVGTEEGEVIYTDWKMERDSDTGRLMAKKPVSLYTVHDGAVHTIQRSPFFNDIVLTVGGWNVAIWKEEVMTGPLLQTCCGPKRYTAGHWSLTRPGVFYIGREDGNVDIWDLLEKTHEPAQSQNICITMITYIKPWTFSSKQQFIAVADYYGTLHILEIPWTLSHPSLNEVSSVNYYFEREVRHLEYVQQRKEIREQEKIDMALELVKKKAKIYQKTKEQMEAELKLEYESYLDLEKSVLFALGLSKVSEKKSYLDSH
Described as above.

These are yes or no findings as the source states them, for the method shown. Binding seen in cells or lysates may run through a third protein. Some results given as binding are weak or reduced against the parent protein; the word gives no strength. For some of these results: Tags and fused reporters may be left off the sequences shown.

With DNAH2 (from UniProt P0C6F1 1-4456), the binding result in test [1] is on record as “no binding”.

B1: WDR78 (endogenous, mouse testicular extracts) (protein, UniProt E9PYY5 1-807)
chain: MHSSPTSTRKQASFAASASAQPRKSISFINPSKSSAGKGYAASNPNKLAVSRTMGFLTDMKPAEKLNVPSAKTVQVLDSKGVDVTPRPLYHPDPHAASAKPNKLLTSQEGSLGSDYISSYSLYQNTLNPSMLGQYTRSVLGSSSVSKSSISTTESMSEDLEDSSYKRDRLASFTDVRVLRSTAEAAISKEELEKTIEIILTETETLRFFDLPTVMFSTESEEAEKIIEKNKKYETLCRNRLGNDLYVERMMQTFNGAPKNKEVQCEKIILEEKGVVATTWDLYDSYNIPETLLAAKRSGYSSKGSLPAKDRDPKIQDSESSSLMDIENVILAKVQEDEEDNSEAILKSDKLHQDLFYMERVLMENVFQPKLAAYRQLPVYKEHEPEEPEETLQVENLKVAEDEPKKEDEEEVEMELELEIATEQSTIPANLERLWSFSCDLTKGLNVSSLSWNKANPDLLAVGYGNFGFREQKKGMACCWSIKNPMWPERIYQSSYGVTSVDFSNSSPNLLAVGYHNGTVAIYNVQSSHNIPVLDSSESPQKHLGPVWQVQWIEQDRGTTGDDKREILVSISADGRISKWIIRKGLDCHDLMRLKRTTATGGKKGGEKEKKGEALISRQAPGMCFAFHPKDTNIYLAGTEEGLIHKCSCSYNEQYLETYRGHKGPVYKVTWNPFCPDVFLSCSADWGVMIWHQDTVKPFLSFYPTTYVVYDVSWSPKSAYIFAAANENRVEIWDLQISTLDPLIVNVANPGIKFTTVLFAKETDCLLVGDSDGQVAVYELRNMPTASDTSRGDVINILLGPKTNHTG
B1: the binding result in test [2] was “binds”.

B2: FLAG-WDR78 (protein, UniProt E9PYY5 1-807)
chain: B1 chain
For B2, the binding result (in test [3]; with HA-WDR63 ΔN (mouse)) was “binds” throughout.

Values taken from publication PMC8593051.
